# Results published in US7255856.
# These are yes or no findings as the source states them, for the method shown. For some assays here: Binding seen in cells or lysates may run through a third protein. Some entries that bind do so weakly or less than the wild type. For some assays here: Tags and fused reporters may be left off the sequences shown.
# T1: F3 of fibulin-5 expressed from pGEX-4T1 (GST fusion, purified soluble fraction) (mouse) (UniProt Q9WVH9)
# T1 sequence (looked up): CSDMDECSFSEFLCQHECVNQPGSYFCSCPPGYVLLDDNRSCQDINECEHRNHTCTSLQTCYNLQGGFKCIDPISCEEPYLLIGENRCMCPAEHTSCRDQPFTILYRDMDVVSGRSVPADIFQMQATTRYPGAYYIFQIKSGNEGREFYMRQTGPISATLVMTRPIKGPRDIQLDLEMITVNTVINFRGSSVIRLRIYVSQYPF
# Legend:
# [1] = target: fibulin-5 (prey found in the adult rat lung library, pACT2 vector) (rat (adult rat lung library)) (UniProt Q9WVH8); test: yeast two-hybrid library screen (adult rat lung library, full-length LOXL1 bait)
# [2] = target: T1, F3 of fibulin-5 expressed from pGEX-4T1 (GST fusion, purified soluble fraction) (mouse); test: GST pull-down (legend of FIG. 3B)
# [3] = target: T1, F3 of fibulin-5 expressed from pGEX-4T1 (GST fusion, purified soluble fraction) (mouse); test: GST pull-down with purified L3 and F3 fragments, glutathione Sepharose beads, immunoblot
# [4] = target: fibulin-5 (endogenous, in wild-type mouse tissue extracts) (mouse) (UniProt Q9WVH9); test: co-immunoprecipitation from lung extracts (legend of FIG. 3C)
# [5] = target: fibulin-5 (endogenous, in wild-type mouse tissue extracts) (mouse) (UniProt Q9WVH9); test: co-immunoprecipitation from wild-type mouse lung extract with α-LOXL1C antibody and protein G-agarose
binder,measurement,setting,value
full-length LOXL1 (yeast two-hybrid bait) (enzyme) QPGQGSDPGRWRQLIQWENNGQVYSLLNSGSEYVPAGPQRGETSSRVLLAGAPQTSQRRSQGGPRRRQAPSLPLPGRVGSDTVRGQTRHPFGFGQVPDNWREVAVGDSTGMARARTSVSQQRHGGSASSSVSASAFATTYRQPSSYPQQFPYPQAPFVNQYENYDPASRTYEQGYVYYRGAGGGMGAGAAAVASAGVIYPFQPRARYEDYGGGGGEEQPEYPAQGFYPAPERPYVPQPQPQPQPQPQPQPQPSDGLDRRYSHSLYNEGTPGFEQAYPDPSTDVSQAPAGAGGTYGGAGDPRLGWYPPYAANVPPEAYVPPRAVEPQPPFRVLEPPYLPVRSSDAPSQGGERNGAQQGRLSVGSVYRPNQNGRGLPDLVPDPNYVQASTYVQRAHLYSLRCAAEEKCLASTAYAPEATDYDLRVLLRFPQRVKNQGTADFLPNRPRHTWEWHSCHQHYHSMDEFSHYDLLDASTGKKVAEGHKASFCLEDSTCDFGNLKRYACTSHTQGLSPGCYDTYNADIDCQWIDITDVQPGNYILKVHVNPKYIVLESDFTNNVVRCNIHYTGRYVSTTNCKIVQS,binding,[1],binds
"L3 of LOXL1 expressed from pET-28a (T7-tagged, purified soluble fraction) (protein, not shown: large carriers) PPYAANVPPEAYVPPRAVEPQPPFRVLEPPYLPVRSSDAPSQGGERNGAQQGRLSVGSVYRPNQNGRGL",binding,[2],binds
same,binding,[3],binds
"LOXL1 (endogenous, in wild-type mouse tissue extracts) (enzyme) QPGQGSDPGRWRQLIQWENNGQVYSLLNSGSEYVPAGPQRGETSSRVLLAGAPQTSQRRSQGGPRRRQAPSLPLPGRVGSDTVRGQTRHPFGFGQVPDNWREVAVGDSTGMARARTSVSQQRHGGSASSSVSASAFATTYRQPSSYPQQFPYPQAPFVNQYENYDPASRTYEQGYVYYRGAGGGMGAGAAAVASAGVIYPFQPRARYEDYGGGGGEEQPEYPAQGFYPAPERPYVPQPQPQPQPQPQPQPQPSDGLDRRYSHSLYNEGTPGFEQAYPDPSTDVSQAPAGAGGTYGGAGDPRLGWYPPYAANVPPEAYVPPRAVEPQPPFRVLEPPYLPVRSSDAPSQGGERNGAQQGRLSVGSVYRPNQNGRGLPDLVPDPNYVQASTYVQRAHLYSLRCAAEEKCLASTAYAPEATDYDLRVLLRFPQRVKNQGTADFLPNRPRHTWEWHSCHQHYHSMDEFSHYDLLDASTGKKVAEGHKASFCLEDSTCDFGNLKRYACTSHTQGLSPGCYDTYNADIDCQWIDITDVQPGNYILKVHVNPKYIVLESDFTNNVVRCNIHYTGRYVSTTNCKIVQS",binding,[4],binds
same,binding,[5],binds
